Test results reported in PubChem BioAssay AID743255 (National Center for Advancing Translational Sciences (NCATS), 2014).
Where “and” joins values, the source holds several entries; their conditions need not be identical. Equal values may be shown once. Screen size: about 390,000 compounds; about 910 (0.23%) were called active. Inconclusive means that the source gave no clear call. Such entries were picked first, then a sample of the others. Calls come from the whole dose curve; as a rule, active = well fitted inhibition curve with a large enough effect; inconclusive = small, poorly fitted or top-dose-only effect; inactive = no such curve, though single readings can be large or run the other way. Potencies beside an inconclusive call are fits to weak or partial responses and may not hold up.

Amino acid sequences for entries named in this document (tags omitted). A change or cut given only in a name is not applied to a line headed by its entry.
UniProt O94782: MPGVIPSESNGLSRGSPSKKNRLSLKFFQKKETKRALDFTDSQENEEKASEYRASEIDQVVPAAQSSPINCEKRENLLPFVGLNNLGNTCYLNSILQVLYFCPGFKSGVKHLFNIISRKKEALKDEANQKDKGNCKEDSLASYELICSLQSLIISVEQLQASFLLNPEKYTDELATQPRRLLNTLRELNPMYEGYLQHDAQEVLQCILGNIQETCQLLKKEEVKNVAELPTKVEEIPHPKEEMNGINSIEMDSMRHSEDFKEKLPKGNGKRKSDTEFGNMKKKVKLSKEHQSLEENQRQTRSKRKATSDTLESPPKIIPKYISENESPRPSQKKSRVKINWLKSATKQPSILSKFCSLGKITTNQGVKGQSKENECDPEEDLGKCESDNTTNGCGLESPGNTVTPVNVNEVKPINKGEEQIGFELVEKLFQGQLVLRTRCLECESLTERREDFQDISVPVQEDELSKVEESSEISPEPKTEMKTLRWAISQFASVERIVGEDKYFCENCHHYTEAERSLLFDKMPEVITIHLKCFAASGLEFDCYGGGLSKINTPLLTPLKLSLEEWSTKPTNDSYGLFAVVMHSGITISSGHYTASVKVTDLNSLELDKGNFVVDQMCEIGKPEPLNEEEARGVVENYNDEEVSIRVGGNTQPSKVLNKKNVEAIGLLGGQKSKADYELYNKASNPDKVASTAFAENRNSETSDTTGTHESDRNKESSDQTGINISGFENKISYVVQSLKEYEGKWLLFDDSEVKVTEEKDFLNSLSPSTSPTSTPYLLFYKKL

biological target: Ubiquitin carboxyl-terminal hydrolase 1 (Homo sapiens) (UniProt O94782); experiment: Inhibitors of USP1/UAF1: Primary Screen; settings: recombinant USP1/UAF1, Ub-Rhodamine cleavage fluorescence; activity change, negative = inhibition: at 57.1 µM (top of the series); note: nearly all actives have a fitted effect of over 60% in size
Outline: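 High-throughput fluorogenic screen: 1nM USP1/UAF1 complex, Ub-Rho substrate 150nM final, 50mM HEPES pH 7.8 with 0.5mM EDTA, 0.1 mg/ml BSA, 1mM TCEP and 0.01% Tween-20.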
% is set by controls: 0 for no effect and ±100 for the full control effect; potency is the fitted concentration of half-maximal effect.

| Compound | Potency | activity change, negative = inhibition |
| --- | --- | --- |
| O=C(/C=C/c1ccccc1)NC(=S)N1C[C@H]2C[C@H](C1)c1cccc(=O)n1C2 | inconclusive: 3.16 µM [inhibitor, partial curve] |  |
| COc1cccc(NC(=O)CN2CC(c3ccccc3)CC2=O)c1 (stereo not given) | inconclusive: 31.6 µM [inhibitor, partial curve, poor fit] |  |
| O=C1NC(=O)N(c2ccc3c(c2)OCO3)C(=O)/C1=C/c1ccc(N2CCCC2)o1 | inconclusive: 28.2 µM [inhibitor, partial curve] |  |
| Nc1c(C(=O)NC2CCCC2)c2nc3ccccc3nc2n1CC1CCCO1 (stereo not given) | active: 28.2 µM |  |
| CN1C(=O)/C(=C\c2ccc(N3CCCCCC3)cc2)C(=O)NC1=S |  | inactive: -7.47% |
| CN1CC(C(=O)c2ccc(Cl)cc2)C(c2ccccc2F)C1 (stereo not given) | inconclusive: 3.98 µM [inhibitor, partial curve] |  |
| CC(C)(C)C(=O)O[C@H]1CC[C@@]2(C)C(=CC(=O)C3C2CC[C@]2(C)C(=O)[C@@H](F)CC32)C1 (stereo not given in full) |  | inactive: -22.2% |
| COc1ccc2c(c1OC)CN1CCc3cc4c(cc3[C@@H]1[C@@H]2O)OCO4 | inconclusive: 39.8 µM [inhibitor, partial curve, poor fit] |  |
| COCCCn1c(N)c(C(=O)OC(C)COC)c2nc3ccccc3nc21 (stereo not given) |  | inactive: -11.2% |
| CN(C)C(=O)Oc1cc(OC(=O)N(C)C)cc(C(O)CNC(C)(C)C)c1 (stereo not given) | inconclusive: 12.6 µM [inhibitor, partial curve] and inconclusive: 17.8 µM [inhibitor, partial curve] |  |
| Cn1c(O)c(C2=NNC(c3ccc(Cl)cc3)C2)c(=O)n(C)c1=O (stereo not given) | inconclusive: 10 µM [inhibitor, partial curve] |  |
| C/C(=N\NC(N)=O)c1c(O)n(C)c(=O)n(C)c1=O |  | inactive: -8.1% |
| COC(=O)[C@@]1(C#N)[C@@H]2C=CC(C(C)=O)=CN2[C@@H](C(N)=O)[C@@H]1c1ccc(F)cc1 | active: 28.2 µM |  |
| Cn1c(=O)[nH]c2nncnc2c1=O | inconclusive: 14.1 µM [inhibitor, partial curve] |  |
| COc1ccc2c3c([nH]c2c1)C(C)NCC3 (stereo not given) | inconclusive: 8.91 µM [inhibitor, full curve, poor fit] |  |
| CN1CCN(c2cc(N3CCCCCC3)c(F)cc2[N+](=O)[O-])CC1 |  | inactive: 3.38% |
| Cc1ccc(S(=O)(=O)N(CC(=O)NCCSc2ccc(Cl)cc2)c2ccccc2C)cc1 | inconclusive: 501 µM [inhibitor, partial curve, poor fit] |  |
| CC[C@@]1(O)C(=O)OCc2c1cc1n(c2=O)Cc2cc3c(N)cccc3nc2-1 | inconclusive: 35.5 µM [inhibitor, partial curve, poor fit] |  |
| CCOC(=O)c1c(-n2c(C)cc(/C=C3\C(=O)NC(=O)N(C)C3=O)c2C)sc2c1CCCC2 |  | inactive: -9.56% |
| C[C@]12CCC3C(CC[C@H]4C[C@@H](O)CC[C@]34C)C1C[C@@H](O)[C@]2(C)O (stereo not given in full) | inconclusive: 2.51 µM [inhibitor, full curve] |  |

One compound at a time (already shown).
`CC[C@@]1(O)C(=O)OCc2c1cc1n(c2=O)Cc2cc3c(N)cccc3nc2-1` is entered as Potency: inconclusive: 35.5 µM [inhibitor, partial curve, poor fit]
`Cc1ccc(S(=O)(=O)N(CC(=O)NCCSc2ccc(Cl)cc2)c2ccccc2C)cc1` is entered as Potency: inconclusive: 501 µM [inhibitor, partial curve, poor fit]
`CCOC(=O)c1c(-n2c(C)cc(/C=C3\C(=O)NC(=O)N(C)C3=O)c2C)sc2c1CCCC2` is entered as activity change, negative = inhibition: inactive: -9.56%

(listing goes on)

| Compound | Potency | activity change, negative = inhibition |
| --- | --- | --- |
| O=C1NCCOC(=O)[C@H](Cc2ccc(F)cc2)CC/C=C/C[C@@H]1CC(=O)N(CCO)Cc1ccccc1 |  | inactive: -2.64% |
| Cc1ccc([C@H]2C[C@H](n3cc(C4CC4)nn3)[C@@H](O)CN2Cc2cccs2)cc1 | inconclusive: 28.2 µM [inhibitor, partial curve] |  |
| Cc1ccccc1-n1c(/C=C/c2ccc(N(C)C)cc2)nc2ccccc2c1=O | inconclusive: 0.562 µM [inhibitor, full curve, poor fit] |  |
| Cc1nc2ccccc2c(=O)n1-c1ccc(Br)cn1 | inconclusive: 4.47 µM [inhibitor, single point] |  |
| C=CCn1c(O)c(C=Nc2ccc(N(CC)CC)cc2)c(=O)[nH]c1=O | inconclusive: 20 µM [inhibitor, partial curve, poor fit] |  |
| O=C1CC=C2C3CC4N(CCC45c4cc(O)c(O)cc4N1C25)CC3=CCBr (stereo not given) | inconclusive: 35.5 µM [inhibitor, single point] |  |
| C=C1C(=O)O[C@@H]2C[C@@H](C)[C@H]3C=CC(=O)[C@]3(O)C[C@@H]12 | inconclusive: 22.4 µM [inhibitor, partial curve, poor fit] |  |
| COc1ccc(NC(=O)CSc2oc(-c3cccs3)nc2S(=O)(=O)c2ccccc2)c(OC)c1 | inconclusive: 6.31 µM [inhibitor, single point] |  |
| O=C(Nc1ccc(Oc2ccc(Cl)cc2)c(Cl)c1)c1cc(I)cc(I)c1O | inconclusive: 50.1 µM [inhibitor, partial curve] |  |
| CCOC(=O)c1c(C)n(Cc2ccc(F)cc2)c2ccc(O)cc12 |  | inactive: -5.2% |
| COc1cccc(N2C(=O)NC(=O)/C(=C/c3ccc([N+](=O)[O-])s3)C2=O)c1 | inconclusive: 14.1 µM [inhibitor, partial curve] |  |
| CCN(CC)c1ccc(N=Cc2c(O)n(-c3cc(OC)ccc3OC)c(=O)[nH]c2=O)cc1 | inconclusive: 39.8 µM [inhibitor, partial curve] |  |
| N#C/C(N)=C(/N)C#N | inconclusive: 31.6 µM [inhibitor, single point] |  |
| C[C@@H]1CN([C@H](C)CO)C(=O)CCCn2nncc2CO[C@@H]1CN(C)C(=O)Oc1cccc2ccccc12 | inconclusive: 44.7 µM [inhibitor, partial curve, poor fit] |  |
| Cc1cc([N+](=O)[O-])c(Cl)cc1NC(=O)C(C)C |  | inactive: -16.9% |
| COC(=O)C1=C(c2cc3ccccc3o2)C[C@@H]2CC[C@H]1N2C(=O)NC1CCCCC1 | inconclusive: 70.8 µM [inhibitor, partial curve, poor fit] |  |
| CC/C(=N\NC(=O)c1ccccc1O)c1c(O)n(Cc2ccccc2)c(=O)[nH]c1=O | inconclusive: 22.4 µM [inhibitor, partial curve] |  |
| CCCOc1ccccc1OCC(=O)N1CCN(CC(=O)N2CCOCC2)CC1 |  | inactive: 8.08% |
| COC(=O)c1ccc(-c2nc(-c3ccc(Br)o3)no2)cc1 | inconclusive: 0.708 µM [inhibitor, full curve] |  |
| Clc1ccc(-c2nc3ccc(Cl)cn3c2CN2CCOCC2)cc1 |  | inactive: -5.93% |
